Results as given in PMC3798277.

Molecular target: CArG box binding factor A (CBF-A) p42 isoform (mouse (endogenous in testis))
Assay: co-IP; cytoplasmic fraction of mouse testis lysate (adult; also 30 dpp), untreated or treated with 100 µg/ml RNase A, incubated overnight with anti-CBF-A antibodies SAK22 (p37 and p42) or ICCI (p42 only) or control IgGs; Protein A-Sepharose; immunoblots

B1: MVH (Mouse Vasa Homolog/DDX4) (protein, UniProt Q61496 1-702)
chain: MGDEDWEAEILKPHVSSYVPVFEKDKYSSGANGDTFNRTSASSDIGESSKKENTSTTGGFGRGKGFGNRGFLNNKFEEGDSSGFWKESNNDCEDNQTRSRGFSKRGGCQDGNDSEASGPFRRGGRGSFRGCRGGFGLGRPNSESDQDQGTQRGGGLFGSRKPAASDSGNGDTYQSRSGSGRGGYKGLNEEVVTGSGKNSWKSETEGGESSDSQGPKVTYIPPPPPEDEDSIFAHYQTGINFDKYDTILVEVSGHDAPPAILTFEEANLCQTLNNNIAKAGYTKLTPVQKYSIPIVLAGRDLMACAQTGSGKTAAFLLPILAHMMRDGITASRFKELQEPECIIVAPTRELINQIYLEARKFSFGTCVRAVVIYGGTQFGHSVRQIVQGCNILCATPGRLMDIIGKEKIGLKQVKYLVLDEADRMLDMGFGPEMKKLISCPGMPSKEQRQTLLFSATFPEEIQRLAGDFLKSSYLFVAVGQVGGACRDVQQTILQVGQYSKREKLVEILRNIGDERTMVFVETKKKADFIATFLCQEKISTTSIHGDREQREREQALGDFRCGKCPVLVATSVAARGLDIENVQHVINFDLPSTIDEYVHRIGRTGRCGNTGRAISFFDTDSDNHLAQPLVKVLSDAQQDVPAWLEEIAFSTYVPPSFSSSTRGGAVFASVDTRKNYQGKHTLNTAGISSSQAPNPVDDESWD
binding: no binding

Results are given in words; binding and its absence hold for the method and conditions named. Binding seen in cells or lysates may run through a third protein.
